Measured data: PubChem BioAssay AID1508597 (Cure First, 2020)
This is an unselected part of the about 2,100 reagents, in one setting of the screen. 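Calls flag viability under 80% in either arm, not effects specific to rucaparib; the reference for percent is not stated.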 A reagent listed more than once was tested more than once; the source does not tell the runs apart. The record does not give: the 100% reference.

Aim: 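Knock-downs altering ovarian cancer cell survival with or without PARP inhibitor rucaparib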 (primary screen)
Cells: human ovarian carcinoma lines grown from tumours: OCI-P5x (papillary serous) and OCI-C5x (clear cell)
Reagent: siRNA pool against human genes, 1.25 pmol siRNA per well
Time to read-out: 72 h or 96 h, depending on the cell culture
Challenge: rucaparib 20 µM (about IC30) or vehicle, present until read-out
Rucaparib or vehicle: Rucaparib
Cell line: OCI-P5x (serous)
Measured: 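ATP luminescence measured at 72 or 96 h according to the culture, then normalised and expressed as percent viability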
Scale: viability, normalised: higher = more viable cells remaining
Rule for the call: 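Active when normalised viability falls below 80 percent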
Meaning of the calls: active = viability under 80%; inactive = viability 80% or more

{"gene": "PANK1", "PubChem SID": "SID405527814", "technical replicate": "1", "viability, normalised (%)": 130, "call": "inactive"}
{"gene": "PANK1", "PubChem SID": "SID405527814", "technical replicate": "2", "viability, normalised (%)": 143, "call": "inactive"}
{"gene": "PANK1", "PubChem SID": "SID405527814", "technical replicate": "3", "viability, normalised (%)": 85, "call": "inactive"}
{"gene": "HMGN5", "PubChem SID": "SID405526881", "technical replicate": "1", "viability, normalised (%)": 60.2, "call": "active"}
{"gene": "HMGN5", "PubChem SID": "SID405526881", "technical replicate": "2", "viability, normalised (%)": 48.9, "call": "active"}
{"gene": "HMGN5", "PubChem SID": "SID405526881", "technical replicate": "3", "viability, normalised (%)": 69.8, "call": "active"}
{"gene": "CLDN18", "PubChem SID": "SID405528131", "technical replicate": "1", "viability, normalised (%)": 56.6, "call": "active"}
{"gene": "CLDN18", "PubChem SID": "SID405528131", "technical replicate": "2", "viability, normalised (%)": 71.4, "call": "active"}
{"gene": "CLDN18", "PubChem SID": "SID405528131", "technical replicate": "3", "viability, normalised (%)": 61.7, "call": "active"}
{"gene": "INSRR", "PubChem SID": "SID405528545", "technical replicate": "1", "viability, normalised (%)": 70.3, "call": "active"}
{"gene": "INSRR", "PubChem SID": "SID405528545", "technical replicate": "2", "viability, normalised (%)": 52.6, "call": "active"}
{"gene": "INSRR", "PubChem SID": "SID405528545", "technical replicate": "3", "viability, normalised (%)": 64.6, "call": "active"}

The list goes on (4 carried over from the part before).
{"gene": "CLDN18", "PubChem SID": "SID405528131", "technical replicate": "3", "viability, normalised (%)": 61.7, "call": "active"}
{"gene": "INSRR", "PubChem SID": "SID405528545", "technical replicate": "1", "viability, normalised (%)": 70.3, "call": "active"}
{"gene": "INSRR", "PubChem SID": "SID405528545", "technical replicate": "2", "viability, normalised (%)": 52.6, "call": "active"}
{"gene": "INSRR", "PubChem SID": "SID405528545", "technical replicate": "3", "viability, normalised (%)": 64.6, "call": "active"}
{"gene": "BTAF1", "PubChem SID": "SID405528053", "technical replicate": "1", "viability, normalised (%)": 60.8, "call": "active"}
{"gene": "BTAF1", "PubChem SID": "SID405528053", "technical replicate": "2", "viability, normalised (%)": 66.8, "call": "active"}
{"gene": "BTAF1", "PubChem SID": "SID405528053", "technical replicate": "3", "viability, normalised (%)": 63.1, "call": "active"}
{"gene": "DPF3", "PubChem SID": "SID405528241", "technical replicate": "1", "viability, normalised (%)": 74.6, "call": "active"}
{"gene": "DPF3", "PubChem SID": "SID405528241", "technical replicate": "2", "viability, normalised (%)": 72.6, "call": "active"}
{"gene": "DPF3", "PubChem SID": "SID405528241", "technical replicate": "3", "viability, normalised (%)": 85.8, "call": "inactive"}
{"gene": "DDR2", "PubChem SID": "SID405527532", "technical replicate": "1", "viability, normalised (%)": 123, "call": "inactive"}
{"gene": "DDR2", "PubChem SID": "SID405527532", "technical replicate": "2", "viability, normalised (%)": 97.6, "call": "inactive"}
{"gene": "DDR2", "PubChem SID": "SID405527532", "technical replicate": "3", "viability, normalised (%)": 124, "call": "inactive"}
{"gene": "NTRK1", "PubChem SID": "SID405526398", "technical replicate": "1", "viability, normalised (%)": 52.6, "call": "active"}
{"gene": "NTRK1", "PubChem SID": "SID405526398", "technical replicate": "1", "viability, normalised (%)": 31.6, "call": "active"}
{"gene": "NTRK1", "PubChem SID": "SID405526398", "technical replicate": "1", "viability, normalised (%)": 119, "call": "inactive"}
{"gene": "NTRK1", "PubChem SID": "SID405526398", "technical replicate": "2", "viability, normalised (%)": 45.1, "call": "active"}
{"gene": "NTRK1", "PubChem SID": "SID405526398", "technical replicate": "2", "viability, normalised (%)": 52.1, "call": "active"}
{"gene": "NTRK1", "PubChem SID": "SID405526398", "technical replicate": "2", "viability, normalised (%)": 120, "call": "inactive"}
{"gene": "NTRK1", "PubChem SID": "SID405526398", "technical replicate": "3", "viability, normalised (%)": 43.7, "call": "active"}
{"gene": "NTRK1", "PubChem SID": "SID405526398", "technical replicate": "3", "viability, normalised (%)": 75.4, "call": "active"}
{"gene": "NTRK1", "PubChem SID": "SID405526398", "technical replicate": "3", "viability, normalised (%)": 81.6, "call": "inactive"}
{"gene": "BORA", "PubChem SID": "SID405528038", "technical replicate": "1", "viability, normalised (%)": 50.7, "call": "active"}
{"gene": "BORA", "PubChem SID": "SID405528038", "technical replicate": "2", "viability, normalised (%)": 57.6, "call": "active"}
{"gene": "BORA", "PubChem SID": "SID405528038", "technical replicate": "3", "viability, normalised (%)": 68.6, "call": "active"}
